Measurements reported in the supplement of paper PMC10849652.
This is one part of the list.

Amino acid sequences for entries named in this document (tags omitted). A change or cut given only in a name is not applied to a line headed by its entry.
UniProt O75419: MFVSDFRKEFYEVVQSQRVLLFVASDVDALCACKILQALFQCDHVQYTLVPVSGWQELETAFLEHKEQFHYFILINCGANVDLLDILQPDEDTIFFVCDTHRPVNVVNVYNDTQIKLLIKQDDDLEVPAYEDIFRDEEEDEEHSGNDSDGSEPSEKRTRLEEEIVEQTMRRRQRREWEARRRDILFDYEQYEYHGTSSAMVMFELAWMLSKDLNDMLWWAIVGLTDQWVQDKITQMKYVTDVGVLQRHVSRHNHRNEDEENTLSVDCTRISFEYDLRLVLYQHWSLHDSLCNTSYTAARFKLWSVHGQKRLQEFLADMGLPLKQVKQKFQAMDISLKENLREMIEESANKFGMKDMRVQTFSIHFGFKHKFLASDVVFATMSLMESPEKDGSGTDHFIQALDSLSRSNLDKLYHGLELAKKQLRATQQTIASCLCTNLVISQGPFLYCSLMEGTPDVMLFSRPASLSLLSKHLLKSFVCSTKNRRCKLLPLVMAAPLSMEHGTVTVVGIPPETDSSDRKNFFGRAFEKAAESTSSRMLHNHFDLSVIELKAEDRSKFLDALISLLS
UniProt Q86X02: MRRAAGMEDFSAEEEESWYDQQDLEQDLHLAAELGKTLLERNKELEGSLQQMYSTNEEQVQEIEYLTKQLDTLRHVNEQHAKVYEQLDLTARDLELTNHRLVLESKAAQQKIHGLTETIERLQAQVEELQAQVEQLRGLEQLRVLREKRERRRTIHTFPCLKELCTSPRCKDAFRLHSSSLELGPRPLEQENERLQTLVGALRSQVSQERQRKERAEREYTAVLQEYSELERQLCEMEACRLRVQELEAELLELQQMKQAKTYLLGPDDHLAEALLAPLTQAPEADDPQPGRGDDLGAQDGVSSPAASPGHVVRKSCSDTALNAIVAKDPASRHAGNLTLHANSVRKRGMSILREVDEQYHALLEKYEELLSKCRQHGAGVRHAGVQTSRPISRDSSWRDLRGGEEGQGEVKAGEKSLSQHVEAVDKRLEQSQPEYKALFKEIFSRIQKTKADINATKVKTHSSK
UniProt Q9UQN3, whole entry, looked up: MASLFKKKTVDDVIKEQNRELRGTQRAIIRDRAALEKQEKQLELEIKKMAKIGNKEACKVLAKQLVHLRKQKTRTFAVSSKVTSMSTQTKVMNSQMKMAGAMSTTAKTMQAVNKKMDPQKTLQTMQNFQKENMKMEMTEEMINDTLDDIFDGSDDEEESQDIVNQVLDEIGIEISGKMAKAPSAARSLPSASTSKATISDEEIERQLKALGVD
UniProt Q6P2H3: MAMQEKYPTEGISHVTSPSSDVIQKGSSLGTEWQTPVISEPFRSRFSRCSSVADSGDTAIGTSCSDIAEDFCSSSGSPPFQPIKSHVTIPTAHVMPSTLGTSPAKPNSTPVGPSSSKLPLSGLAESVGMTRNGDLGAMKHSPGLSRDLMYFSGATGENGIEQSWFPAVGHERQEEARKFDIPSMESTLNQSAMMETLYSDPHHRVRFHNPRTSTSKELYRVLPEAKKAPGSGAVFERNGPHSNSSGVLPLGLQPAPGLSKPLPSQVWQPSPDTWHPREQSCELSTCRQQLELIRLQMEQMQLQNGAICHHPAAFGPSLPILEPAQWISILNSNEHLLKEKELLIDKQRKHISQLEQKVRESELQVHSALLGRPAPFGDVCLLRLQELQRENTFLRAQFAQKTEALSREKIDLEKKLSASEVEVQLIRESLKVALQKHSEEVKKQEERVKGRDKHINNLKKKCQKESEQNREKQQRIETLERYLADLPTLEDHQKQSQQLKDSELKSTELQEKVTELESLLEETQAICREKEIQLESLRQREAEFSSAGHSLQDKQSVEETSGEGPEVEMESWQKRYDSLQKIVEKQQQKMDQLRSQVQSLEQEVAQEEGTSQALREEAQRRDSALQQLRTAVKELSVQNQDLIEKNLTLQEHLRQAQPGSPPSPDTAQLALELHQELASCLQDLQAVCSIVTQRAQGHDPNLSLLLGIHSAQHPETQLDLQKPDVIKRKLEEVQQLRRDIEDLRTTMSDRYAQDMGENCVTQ
UniProt Q9BU64: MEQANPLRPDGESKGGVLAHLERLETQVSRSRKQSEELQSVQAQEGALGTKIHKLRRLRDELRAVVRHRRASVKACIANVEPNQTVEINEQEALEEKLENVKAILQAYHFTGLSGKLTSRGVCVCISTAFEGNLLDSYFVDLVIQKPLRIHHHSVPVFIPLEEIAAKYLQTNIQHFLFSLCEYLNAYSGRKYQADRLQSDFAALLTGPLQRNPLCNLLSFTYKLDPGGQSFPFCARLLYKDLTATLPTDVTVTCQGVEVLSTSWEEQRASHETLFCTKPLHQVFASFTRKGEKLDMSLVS
UniProt P49454: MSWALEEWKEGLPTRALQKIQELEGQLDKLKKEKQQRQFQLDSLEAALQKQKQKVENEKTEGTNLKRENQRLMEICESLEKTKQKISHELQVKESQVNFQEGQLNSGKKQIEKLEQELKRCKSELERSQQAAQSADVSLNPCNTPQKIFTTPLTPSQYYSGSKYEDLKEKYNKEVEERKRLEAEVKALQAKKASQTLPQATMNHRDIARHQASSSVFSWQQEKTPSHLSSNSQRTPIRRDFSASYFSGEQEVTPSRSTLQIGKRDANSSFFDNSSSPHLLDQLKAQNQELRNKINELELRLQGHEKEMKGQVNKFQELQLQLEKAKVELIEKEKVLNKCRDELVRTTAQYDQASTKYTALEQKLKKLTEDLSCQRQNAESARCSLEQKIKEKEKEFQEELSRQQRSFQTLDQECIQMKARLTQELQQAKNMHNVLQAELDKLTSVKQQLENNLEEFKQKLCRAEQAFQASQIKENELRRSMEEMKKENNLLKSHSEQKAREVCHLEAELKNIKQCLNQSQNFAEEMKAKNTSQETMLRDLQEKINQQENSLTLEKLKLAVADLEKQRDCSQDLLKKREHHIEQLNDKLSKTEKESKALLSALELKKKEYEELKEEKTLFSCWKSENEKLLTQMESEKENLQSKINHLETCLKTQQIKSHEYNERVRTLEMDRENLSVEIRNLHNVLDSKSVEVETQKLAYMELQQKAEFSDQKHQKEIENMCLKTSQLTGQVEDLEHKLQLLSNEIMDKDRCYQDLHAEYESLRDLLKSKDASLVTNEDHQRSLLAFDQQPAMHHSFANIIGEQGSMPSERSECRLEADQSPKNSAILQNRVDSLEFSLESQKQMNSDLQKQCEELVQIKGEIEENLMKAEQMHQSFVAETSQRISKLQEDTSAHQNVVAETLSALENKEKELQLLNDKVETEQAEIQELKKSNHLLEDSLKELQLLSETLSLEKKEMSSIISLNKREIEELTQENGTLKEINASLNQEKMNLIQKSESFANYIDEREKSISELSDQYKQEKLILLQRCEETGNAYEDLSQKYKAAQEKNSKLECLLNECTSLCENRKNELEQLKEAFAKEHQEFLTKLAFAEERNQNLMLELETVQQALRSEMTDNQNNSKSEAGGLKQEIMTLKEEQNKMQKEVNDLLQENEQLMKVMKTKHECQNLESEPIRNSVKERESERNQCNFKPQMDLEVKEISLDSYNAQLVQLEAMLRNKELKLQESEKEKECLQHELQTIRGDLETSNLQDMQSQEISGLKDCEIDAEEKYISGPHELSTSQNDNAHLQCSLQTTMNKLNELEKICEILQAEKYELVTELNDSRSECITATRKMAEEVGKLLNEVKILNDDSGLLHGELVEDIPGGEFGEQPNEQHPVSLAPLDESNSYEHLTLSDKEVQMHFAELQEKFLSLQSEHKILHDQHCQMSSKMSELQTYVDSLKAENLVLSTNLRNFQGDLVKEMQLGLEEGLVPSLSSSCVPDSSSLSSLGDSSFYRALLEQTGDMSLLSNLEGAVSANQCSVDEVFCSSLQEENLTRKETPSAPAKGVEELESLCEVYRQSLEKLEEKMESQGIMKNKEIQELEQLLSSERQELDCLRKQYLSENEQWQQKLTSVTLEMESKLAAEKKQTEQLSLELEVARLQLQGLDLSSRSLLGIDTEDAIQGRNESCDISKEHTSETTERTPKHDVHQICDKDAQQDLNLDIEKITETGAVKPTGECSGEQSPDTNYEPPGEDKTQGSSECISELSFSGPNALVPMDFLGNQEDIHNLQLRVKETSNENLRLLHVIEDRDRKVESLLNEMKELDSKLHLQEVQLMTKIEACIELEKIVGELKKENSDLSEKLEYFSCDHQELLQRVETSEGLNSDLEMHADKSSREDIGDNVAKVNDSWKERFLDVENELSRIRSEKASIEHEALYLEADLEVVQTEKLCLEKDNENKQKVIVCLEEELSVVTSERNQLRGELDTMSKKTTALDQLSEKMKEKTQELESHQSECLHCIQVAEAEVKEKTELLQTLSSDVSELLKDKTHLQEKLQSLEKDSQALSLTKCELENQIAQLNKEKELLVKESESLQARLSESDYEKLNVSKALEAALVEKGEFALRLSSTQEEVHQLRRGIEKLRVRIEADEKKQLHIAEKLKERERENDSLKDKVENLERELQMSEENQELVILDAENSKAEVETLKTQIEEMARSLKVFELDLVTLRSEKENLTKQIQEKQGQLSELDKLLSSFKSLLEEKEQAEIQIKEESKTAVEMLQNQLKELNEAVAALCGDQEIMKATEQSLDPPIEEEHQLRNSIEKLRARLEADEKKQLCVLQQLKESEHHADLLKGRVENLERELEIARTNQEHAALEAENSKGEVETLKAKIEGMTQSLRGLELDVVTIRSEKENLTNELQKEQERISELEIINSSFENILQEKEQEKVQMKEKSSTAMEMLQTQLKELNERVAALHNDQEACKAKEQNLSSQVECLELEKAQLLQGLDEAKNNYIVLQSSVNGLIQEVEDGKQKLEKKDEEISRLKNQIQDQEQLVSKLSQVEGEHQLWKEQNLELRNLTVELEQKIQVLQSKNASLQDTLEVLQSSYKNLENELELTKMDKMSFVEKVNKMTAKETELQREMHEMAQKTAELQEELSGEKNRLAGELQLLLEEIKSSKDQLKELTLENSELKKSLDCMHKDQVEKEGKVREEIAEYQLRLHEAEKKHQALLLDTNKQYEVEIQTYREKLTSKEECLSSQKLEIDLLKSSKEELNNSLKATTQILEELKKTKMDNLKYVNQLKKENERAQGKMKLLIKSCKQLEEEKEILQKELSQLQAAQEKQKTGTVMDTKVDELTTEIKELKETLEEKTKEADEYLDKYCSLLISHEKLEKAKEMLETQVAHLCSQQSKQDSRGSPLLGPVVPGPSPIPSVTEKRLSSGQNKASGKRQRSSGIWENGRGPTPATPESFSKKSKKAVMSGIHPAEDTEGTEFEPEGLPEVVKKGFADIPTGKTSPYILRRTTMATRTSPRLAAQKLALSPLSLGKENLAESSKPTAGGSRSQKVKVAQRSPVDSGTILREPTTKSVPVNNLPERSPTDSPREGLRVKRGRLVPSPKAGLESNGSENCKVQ
UniProt Q8WYQ3: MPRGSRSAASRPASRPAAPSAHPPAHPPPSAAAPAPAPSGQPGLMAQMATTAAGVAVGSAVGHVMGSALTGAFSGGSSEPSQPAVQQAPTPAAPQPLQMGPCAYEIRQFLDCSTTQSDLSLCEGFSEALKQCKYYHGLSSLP
UniProt Q9HD42: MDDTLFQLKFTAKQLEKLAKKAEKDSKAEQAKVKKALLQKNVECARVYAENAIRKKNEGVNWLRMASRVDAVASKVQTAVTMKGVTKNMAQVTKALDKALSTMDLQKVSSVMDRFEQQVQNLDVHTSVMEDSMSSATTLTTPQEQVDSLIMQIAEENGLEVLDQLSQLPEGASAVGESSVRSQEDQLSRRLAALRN
UniProt Q9BWS9: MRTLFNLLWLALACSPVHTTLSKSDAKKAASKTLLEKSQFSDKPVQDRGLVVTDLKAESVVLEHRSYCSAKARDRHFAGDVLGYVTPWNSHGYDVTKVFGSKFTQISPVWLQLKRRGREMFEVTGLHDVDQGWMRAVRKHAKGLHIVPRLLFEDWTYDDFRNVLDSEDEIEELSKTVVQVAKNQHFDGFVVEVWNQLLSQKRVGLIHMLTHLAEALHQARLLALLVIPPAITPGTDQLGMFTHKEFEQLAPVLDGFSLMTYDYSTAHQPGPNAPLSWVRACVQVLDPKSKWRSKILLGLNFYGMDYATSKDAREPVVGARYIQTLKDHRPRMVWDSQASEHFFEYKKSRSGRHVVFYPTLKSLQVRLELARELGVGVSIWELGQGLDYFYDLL
UniProt P50613: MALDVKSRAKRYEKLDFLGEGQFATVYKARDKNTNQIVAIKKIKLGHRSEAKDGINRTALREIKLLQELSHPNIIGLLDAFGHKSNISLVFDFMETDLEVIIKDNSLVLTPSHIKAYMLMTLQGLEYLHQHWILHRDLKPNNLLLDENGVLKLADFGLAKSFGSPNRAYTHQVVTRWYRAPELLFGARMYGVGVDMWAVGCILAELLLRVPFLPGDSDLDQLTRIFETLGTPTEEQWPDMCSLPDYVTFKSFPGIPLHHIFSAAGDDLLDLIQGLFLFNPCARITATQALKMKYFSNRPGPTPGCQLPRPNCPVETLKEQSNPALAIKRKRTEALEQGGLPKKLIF
UniProt A8MT69: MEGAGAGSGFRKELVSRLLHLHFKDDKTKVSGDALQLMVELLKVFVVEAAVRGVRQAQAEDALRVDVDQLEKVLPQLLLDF

compound: c1cn2cc(-c3ccc4cn[nH]c4c3)nc(Nc3ccc(N4CCOCC4)cc3)c2n1 [entospletinib]; test: log2 fold change, soluble protein after heating vs DMSO (PISA); higher = thermal stabilisation; K562 cells, 10 uM, 30 min; active = over 0.2 and 3.5 SD of the protein, either way, in both replicates (recomputed)
Method in brief: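 K562 cells at 2×10^6 cells/mL were treated with 10 μM compound for 30 min. Aliquots were heated for 3 min across 48°C-58°C, pooled, and extracted in PBS with 0.5% NP-40 at 4°C; soluble protein was the supernatant after 21,000xg for 90 min. Soluble protein was quantified by TMTpro 16plex LC-MS/MS with channel sums equalised, and reported as log2 fold change in thermal stability against DMSO controls, with values from duplicates.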

log2 fold change, inactive:
CEP170 (UniProt Q5SW79) 0.11, CENPC (UniProt Q03188) 0.169, CDC42BPG (UniProt Q6DT37) 0.179, CEBPB (UniProt P17676) 0.029, CFL1 (UniProt P23528) 0.023, CFAP20 (UniProt Q9Y6A4) 0.016, CHD6 (UniProt Q8TD26) 0.077, CDC42SE2 (UniProt Q9NRR3) 0.031, CENPK (UniProt Q9BS16) 0.105, CGGBP1 (UniProt Q9UFW8) -0.024, CDCA5 (UniProt Q96FF9) 0.082, CHKB (UniProt Q9Y259) -0.044, CDC45 isoform 3 (UniProt O75419) -0.19, CHIC2 (UniProt Q9UKJ5) -0.282, CDS2 (UniProt O95674) 0.036, CEP41 (UniProt Q9BYV8) -0.627, CERS6 isoform 2 (UniProt Q6ZMG9) 0.18, CDIPT (UniProt O14735) 0.032, CEP250 (UniProt Q9BV73) 0.275, CHAF1B (UniProt Q13112) 0.006, CDC73 (UniProt Q6P1J9) 0.116, CEP44 (UniProt Q9C0F1) 0.218, CDR2L (UniProt Q86X02) -0.101, CHMP2B (UniProt Q9UQN3) -0.022, CHM (UniProt P24386) -0.011, CEP152 (UniProt O94986) -0.096, CEP85 (UniProt Q6P2H3) 0.221, CEP170B (UniProt Q9Y4F5) 0.075, CENPO (UniProt Q9BU64) -0.078, CDK2 (UniProt P24941) 0.008, CENPF (UniProt P49454) 0.012, CHCHD10 (UniProt Q8WYQ3) 0.102, CEBPG (UniProt P53567) 0.131, CHMP1A (UniProt Q9HD42) 0.013, CHD5 (UniProt Q8TDI0) 0.283, CHID1 (UniProt Q9BWS9) -0.038, CDK7 (UniProt P50613) -0.029, CENPX (UniProt A8MT69) -0.13
